Results as given in publication PMC4824069.
Read-outs that look alike come from different tables or passages of the source. Results are given in words; binding and its absence hold for the method and conditions named. In cells and extracts the contact can be indirect. A yes stands for co-enrichment or nearness to the bait. Other partners may have been found. For some assays here: A no says only that the protein was not detected with the bait. One block for each molecule: values may come before it.

By UniProt entry, the sequences of proteins in these tests, tags left out. Residues count along the entry.
UniProt O95433: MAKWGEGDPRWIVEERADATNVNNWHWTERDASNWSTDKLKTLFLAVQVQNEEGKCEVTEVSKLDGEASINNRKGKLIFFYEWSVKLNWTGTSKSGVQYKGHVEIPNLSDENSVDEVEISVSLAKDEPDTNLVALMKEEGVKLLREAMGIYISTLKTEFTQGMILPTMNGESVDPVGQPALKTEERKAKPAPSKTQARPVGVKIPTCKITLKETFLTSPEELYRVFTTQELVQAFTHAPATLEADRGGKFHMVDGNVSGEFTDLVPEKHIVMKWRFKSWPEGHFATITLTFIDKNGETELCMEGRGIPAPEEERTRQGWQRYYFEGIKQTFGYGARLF
UniProt Q05639: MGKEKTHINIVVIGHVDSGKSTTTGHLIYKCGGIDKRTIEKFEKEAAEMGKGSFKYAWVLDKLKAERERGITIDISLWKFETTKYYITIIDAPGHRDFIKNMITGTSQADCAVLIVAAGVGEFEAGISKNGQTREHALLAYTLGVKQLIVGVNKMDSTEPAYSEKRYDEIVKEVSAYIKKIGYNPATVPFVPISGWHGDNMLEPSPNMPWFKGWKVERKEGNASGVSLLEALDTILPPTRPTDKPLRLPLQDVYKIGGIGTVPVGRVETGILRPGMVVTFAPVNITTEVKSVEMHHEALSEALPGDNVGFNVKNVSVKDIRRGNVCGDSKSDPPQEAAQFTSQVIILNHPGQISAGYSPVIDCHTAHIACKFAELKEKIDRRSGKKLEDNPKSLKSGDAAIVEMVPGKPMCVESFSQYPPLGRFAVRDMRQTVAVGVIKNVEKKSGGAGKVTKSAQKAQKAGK
UniProt Q9Y3E1: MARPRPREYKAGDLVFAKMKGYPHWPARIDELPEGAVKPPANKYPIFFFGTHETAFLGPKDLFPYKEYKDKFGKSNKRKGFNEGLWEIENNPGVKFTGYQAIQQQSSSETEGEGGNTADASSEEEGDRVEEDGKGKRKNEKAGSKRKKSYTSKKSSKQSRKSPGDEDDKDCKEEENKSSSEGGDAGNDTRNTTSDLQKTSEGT
UniProt Q3ZCQ8, residues 45-353: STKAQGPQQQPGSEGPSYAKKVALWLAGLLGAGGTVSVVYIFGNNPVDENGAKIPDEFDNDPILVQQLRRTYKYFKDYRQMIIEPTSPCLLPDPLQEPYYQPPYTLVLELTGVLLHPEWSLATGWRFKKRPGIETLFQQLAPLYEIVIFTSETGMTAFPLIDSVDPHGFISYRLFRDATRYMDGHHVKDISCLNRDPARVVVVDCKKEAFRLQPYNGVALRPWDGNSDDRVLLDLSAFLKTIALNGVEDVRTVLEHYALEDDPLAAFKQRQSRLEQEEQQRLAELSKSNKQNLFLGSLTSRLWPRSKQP
UniProt Q6PEY2: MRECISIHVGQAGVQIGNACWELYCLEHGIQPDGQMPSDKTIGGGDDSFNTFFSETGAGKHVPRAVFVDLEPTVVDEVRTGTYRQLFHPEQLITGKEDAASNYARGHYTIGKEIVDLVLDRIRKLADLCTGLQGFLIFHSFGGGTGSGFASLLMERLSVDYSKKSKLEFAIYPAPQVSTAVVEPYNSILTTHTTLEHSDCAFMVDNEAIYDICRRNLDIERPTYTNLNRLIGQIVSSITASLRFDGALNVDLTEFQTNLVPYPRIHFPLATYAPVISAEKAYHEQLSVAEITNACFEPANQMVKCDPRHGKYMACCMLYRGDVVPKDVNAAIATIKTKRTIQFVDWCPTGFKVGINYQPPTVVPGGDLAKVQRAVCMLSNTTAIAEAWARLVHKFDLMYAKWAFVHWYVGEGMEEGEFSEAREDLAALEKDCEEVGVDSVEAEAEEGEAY
UniProt Q9NY65: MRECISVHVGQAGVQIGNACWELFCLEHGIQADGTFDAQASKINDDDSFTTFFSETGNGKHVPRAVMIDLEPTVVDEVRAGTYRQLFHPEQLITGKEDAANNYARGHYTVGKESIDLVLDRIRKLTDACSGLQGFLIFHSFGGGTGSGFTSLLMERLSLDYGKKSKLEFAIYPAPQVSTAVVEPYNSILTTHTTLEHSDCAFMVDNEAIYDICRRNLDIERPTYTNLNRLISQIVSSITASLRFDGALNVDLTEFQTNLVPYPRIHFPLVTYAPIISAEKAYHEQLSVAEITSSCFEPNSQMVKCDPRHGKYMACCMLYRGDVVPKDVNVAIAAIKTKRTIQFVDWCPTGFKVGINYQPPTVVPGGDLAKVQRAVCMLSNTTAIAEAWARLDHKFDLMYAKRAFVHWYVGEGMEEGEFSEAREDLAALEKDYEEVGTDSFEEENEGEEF
UniProt P68400: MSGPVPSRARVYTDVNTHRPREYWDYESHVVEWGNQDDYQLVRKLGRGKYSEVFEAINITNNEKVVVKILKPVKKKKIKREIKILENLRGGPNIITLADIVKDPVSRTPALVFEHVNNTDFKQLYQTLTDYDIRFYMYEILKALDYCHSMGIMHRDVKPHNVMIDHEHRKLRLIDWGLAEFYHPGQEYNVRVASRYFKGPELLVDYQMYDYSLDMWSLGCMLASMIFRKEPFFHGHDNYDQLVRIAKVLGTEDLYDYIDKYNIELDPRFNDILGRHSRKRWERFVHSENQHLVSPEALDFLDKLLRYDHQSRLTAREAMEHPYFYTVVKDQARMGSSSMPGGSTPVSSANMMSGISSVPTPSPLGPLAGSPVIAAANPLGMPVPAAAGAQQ
UniProt P67870: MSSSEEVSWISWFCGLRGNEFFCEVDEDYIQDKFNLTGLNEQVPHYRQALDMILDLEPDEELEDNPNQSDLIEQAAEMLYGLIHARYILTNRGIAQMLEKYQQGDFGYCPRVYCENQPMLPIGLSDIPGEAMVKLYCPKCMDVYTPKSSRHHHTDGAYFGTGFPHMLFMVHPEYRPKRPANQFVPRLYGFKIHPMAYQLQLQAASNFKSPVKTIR
UniProt O95071: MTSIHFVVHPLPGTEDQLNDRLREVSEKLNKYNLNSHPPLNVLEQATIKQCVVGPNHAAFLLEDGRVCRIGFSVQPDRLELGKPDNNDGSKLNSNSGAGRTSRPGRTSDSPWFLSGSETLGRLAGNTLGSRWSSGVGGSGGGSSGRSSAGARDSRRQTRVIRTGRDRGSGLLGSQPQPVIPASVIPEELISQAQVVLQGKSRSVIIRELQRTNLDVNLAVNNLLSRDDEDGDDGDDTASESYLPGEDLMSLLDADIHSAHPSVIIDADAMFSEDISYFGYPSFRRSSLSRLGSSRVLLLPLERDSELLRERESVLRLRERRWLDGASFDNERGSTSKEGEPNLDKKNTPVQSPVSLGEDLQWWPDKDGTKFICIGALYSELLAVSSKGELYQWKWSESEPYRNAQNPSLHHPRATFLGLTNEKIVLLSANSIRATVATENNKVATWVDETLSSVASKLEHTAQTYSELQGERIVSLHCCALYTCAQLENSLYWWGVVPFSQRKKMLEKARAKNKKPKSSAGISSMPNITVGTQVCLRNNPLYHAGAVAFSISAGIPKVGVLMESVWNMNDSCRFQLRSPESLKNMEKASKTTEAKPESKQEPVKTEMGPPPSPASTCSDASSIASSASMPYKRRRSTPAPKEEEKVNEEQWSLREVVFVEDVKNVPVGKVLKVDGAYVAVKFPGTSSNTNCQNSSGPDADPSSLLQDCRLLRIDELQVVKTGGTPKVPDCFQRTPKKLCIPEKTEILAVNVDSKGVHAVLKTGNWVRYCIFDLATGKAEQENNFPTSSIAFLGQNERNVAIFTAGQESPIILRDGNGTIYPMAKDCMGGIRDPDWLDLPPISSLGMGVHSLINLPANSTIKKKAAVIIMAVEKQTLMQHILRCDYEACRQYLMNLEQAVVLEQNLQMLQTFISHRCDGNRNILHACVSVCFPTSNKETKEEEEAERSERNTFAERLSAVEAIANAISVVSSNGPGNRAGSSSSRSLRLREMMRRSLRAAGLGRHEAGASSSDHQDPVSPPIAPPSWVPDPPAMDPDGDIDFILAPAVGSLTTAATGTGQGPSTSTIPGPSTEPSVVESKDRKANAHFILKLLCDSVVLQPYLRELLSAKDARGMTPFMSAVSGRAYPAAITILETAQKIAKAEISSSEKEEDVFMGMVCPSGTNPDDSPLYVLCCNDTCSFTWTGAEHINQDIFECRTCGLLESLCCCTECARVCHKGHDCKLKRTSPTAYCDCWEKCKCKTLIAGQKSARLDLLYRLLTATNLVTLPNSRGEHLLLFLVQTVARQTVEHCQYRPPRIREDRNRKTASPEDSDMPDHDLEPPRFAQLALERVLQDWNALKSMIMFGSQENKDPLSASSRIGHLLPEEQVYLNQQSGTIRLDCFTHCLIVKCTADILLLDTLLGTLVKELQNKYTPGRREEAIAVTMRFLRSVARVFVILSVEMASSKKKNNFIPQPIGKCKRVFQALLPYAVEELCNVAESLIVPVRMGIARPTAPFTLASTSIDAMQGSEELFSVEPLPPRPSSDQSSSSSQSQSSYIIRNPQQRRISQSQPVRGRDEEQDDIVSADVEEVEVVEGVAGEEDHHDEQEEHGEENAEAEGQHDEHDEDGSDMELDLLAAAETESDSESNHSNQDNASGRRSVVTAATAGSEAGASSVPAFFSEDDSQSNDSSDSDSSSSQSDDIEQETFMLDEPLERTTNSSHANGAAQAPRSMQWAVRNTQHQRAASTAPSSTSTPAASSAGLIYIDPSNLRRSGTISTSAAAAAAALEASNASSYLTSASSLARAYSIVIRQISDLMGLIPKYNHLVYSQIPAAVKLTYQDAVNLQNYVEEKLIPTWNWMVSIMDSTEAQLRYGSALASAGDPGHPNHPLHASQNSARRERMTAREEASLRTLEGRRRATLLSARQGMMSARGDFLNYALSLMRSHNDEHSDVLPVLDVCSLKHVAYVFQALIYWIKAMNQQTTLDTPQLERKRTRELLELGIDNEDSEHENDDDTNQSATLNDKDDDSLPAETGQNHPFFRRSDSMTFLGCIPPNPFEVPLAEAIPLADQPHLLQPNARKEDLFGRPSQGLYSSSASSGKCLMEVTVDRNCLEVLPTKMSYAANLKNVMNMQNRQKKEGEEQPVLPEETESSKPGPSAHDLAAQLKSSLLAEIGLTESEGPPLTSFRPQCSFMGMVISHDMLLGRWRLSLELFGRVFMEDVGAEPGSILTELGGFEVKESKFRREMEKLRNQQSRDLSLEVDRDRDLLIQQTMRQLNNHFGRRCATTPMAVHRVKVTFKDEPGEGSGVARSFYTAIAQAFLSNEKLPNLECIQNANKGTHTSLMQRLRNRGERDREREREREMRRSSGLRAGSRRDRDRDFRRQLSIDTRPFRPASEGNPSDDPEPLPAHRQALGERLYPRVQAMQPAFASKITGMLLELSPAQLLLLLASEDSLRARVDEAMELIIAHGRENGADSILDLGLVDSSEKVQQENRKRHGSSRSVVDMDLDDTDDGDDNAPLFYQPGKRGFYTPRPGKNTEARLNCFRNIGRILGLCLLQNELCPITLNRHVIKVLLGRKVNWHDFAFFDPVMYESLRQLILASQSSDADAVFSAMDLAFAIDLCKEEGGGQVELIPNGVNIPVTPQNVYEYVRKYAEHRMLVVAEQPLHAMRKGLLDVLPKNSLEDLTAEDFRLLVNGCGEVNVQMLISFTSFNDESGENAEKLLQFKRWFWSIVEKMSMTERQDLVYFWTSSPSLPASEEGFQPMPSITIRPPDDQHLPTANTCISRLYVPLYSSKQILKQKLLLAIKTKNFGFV
UniProt P34931: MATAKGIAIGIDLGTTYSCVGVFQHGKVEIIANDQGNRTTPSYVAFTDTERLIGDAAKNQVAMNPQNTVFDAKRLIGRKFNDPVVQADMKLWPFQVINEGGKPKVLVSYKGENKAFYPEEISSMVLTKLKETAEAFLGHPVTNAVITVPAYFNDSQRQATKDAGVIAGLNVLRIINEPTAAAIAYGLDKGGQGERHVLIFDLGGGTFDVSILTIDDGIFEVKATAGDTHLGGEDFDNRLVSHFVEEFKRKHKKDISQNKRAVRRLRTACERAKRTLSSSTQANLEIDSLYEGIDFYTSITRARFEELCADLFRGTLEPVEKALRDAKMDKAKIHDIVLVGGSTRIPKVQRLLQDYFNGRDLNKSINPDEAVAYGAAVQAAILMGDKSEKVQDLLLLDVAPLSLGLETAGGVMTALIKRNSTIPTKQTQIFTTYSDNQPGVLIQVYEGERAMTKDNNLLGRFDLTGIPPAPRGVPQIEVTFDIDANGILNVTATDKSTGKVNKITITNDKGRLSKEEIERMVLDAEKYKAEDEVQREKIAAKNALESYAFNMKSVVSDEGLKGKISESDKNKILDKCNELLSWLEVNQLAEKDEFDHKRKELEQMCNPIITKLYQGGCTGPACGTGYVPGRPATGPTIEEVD

Assays:
Assay in all cases: affinity purification with mass spectrometry; tandem affinity purification of DPF3a or DPF3b from HEK293 cells (cytoplasm), mass spectrometry; hits with Mascot score >40 and at least two matching spectra
[1] = molecular target: DPF3b, bait protein of the tandem affinity purification (UniProt Q92784)
[2] = molecular target: T1, DPF3a, bait protein of the tandem affinity purification (UniProt Q92784)
T1 sequence: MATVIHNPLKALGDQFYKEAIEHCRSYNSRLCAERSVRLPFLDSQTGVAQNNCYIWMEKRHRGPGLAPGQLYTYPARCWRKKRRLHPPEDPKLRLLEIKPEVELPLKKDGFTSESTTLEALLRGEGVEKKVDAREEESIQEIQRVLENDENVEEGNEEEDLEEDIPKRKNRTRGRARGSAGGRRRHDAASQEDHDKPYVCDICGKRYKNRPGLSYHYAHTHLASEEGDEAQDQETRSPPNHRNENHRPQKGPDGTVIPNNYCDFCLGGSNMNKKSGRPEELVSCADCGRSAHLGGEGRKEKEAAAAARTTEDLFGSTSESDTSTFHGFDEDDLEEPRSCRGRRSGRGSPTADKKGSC

[3] = molecular target: DPF3b, bait protein of the tandem affinity purification (UniProt Q92784); remark: listed apart in the source
[4] = molecular target: T1, DPF3a, bait protein of the tandem affinity purification; remark: listed apart in the source

Molecule: Activator of 90 kDa heat shock protein ATPase homolog 1 (from UniProt O95433 1-338)
- binding [1]: binds

Molecule: Casein kinase II subunit alpha' (from UniProt P19784 1-350)
- binding [2]: binds
- binding [1]: no binding

Molecule: Elongation factor 1-alpha 2 (from UniProt Q05639 1-463)
- binding [1]: binds

Molecule: Hepatoma-derived growth factor-related protein 3 (from UniProt Q9Y3E1 1-203)
- binding [2]: binds

Molecule: Ig kappa chain C region (from UniProt P01834 1-107)
- binding [2]: binds

Molecule: Import inner membrane translocase subunit TIM50, mitochondrial precursor (from UniProt Q3ZCQ8 45-353)
- binding [1]: binds

Molecule: Tubulin alpha-3E chain (from UniProt Q6PEY2 1-450)
- binding [1]: binds

Molecule: Tubulin alpha-8 chain (from UniProt Q9NY65 1-449)
- binding [1]: binds

Molecule: Zinc finger UBR1-type protein 1, ubiquitin protein ligase E3 component n-recognin 4 (from UniProt Q5T4S7 1-5183)
- binding [2]: binds

B1: Exportin-T (protein, UniProt O43592 1-962)
chain: MDEQALLGLNPNADSDFRQRALAYFEQLKISPDAWQVCAEALAQRTYSDDHVKFFCFQVLEHQVKYKYSELTTVQQQLIRETLISWLQAQMLNPQPEKTFIRNKAAQVFALLFVTEYLTKWPKFFFDILSVVDLNPRGVDLYLRILMAIDSELVDRDVVHTSEEARRNTLIKDTMREQCIPNLVESWYQILQNYQFTNSEVTCQCLEVVGAYVSWIDLSLIANDRFINMLLGHMSIEVLREEACDCLFEVVNKGMDPVDKMKLVESLCQVLQSAGFFSIDQEEDVDFLARFSKLVNGMGQSLIVSWSKLIKNGDIKNAQEALQAIETKVALMLQLLIHEDDDISSNIIGFCYDYLHILKQLTVLSDQQKANVEAIMLAVMKKLTYDEEYNFENEGEDEAMFVEYRKQLKLLLDRLAQVSPELLLASVRRVFSSTLQNWQTTRFMEVEVAIRLLYMLAEALPVSHGAHFSGDVSKASALQDMMRTLVTSGVSSYQHTSVTLEFFETVVRYEKFFTVEPQHIPCVLMAFLDHRGLRHSSAKVRSRTAYLFSRFVKSLNKQMNPFIEDILNRIQDLLELSPPENGHQSLLSSDDQLFIYETAGVLIVNSEYPAERKQALMRNLLTPLMEKFKILLEKLMLAQDEERQASLADCLNHAVGFASRTSKAFSNKQTVKQCGCSEVYLDCLQTFLPALSCPLQKDILRSGVRTFLHRMIICLEEEVLPFIPSASEHMLKDCEAKDLQEFIPLINQITAKFKIQVSPFLQQMFMPLLHAIFEVLLRPAEENDQSAALEKQMLRRSYFAFLQTVTGSGMSEVIANQGAENVERVLVTVIQGAVEYPDPIAQKTCFIILSKLVELWGGKDGPVGFADFVYKHIVPACFLAPLKQTFDLADAQTVLALSECAVTLKTIHLKRGPECVQYLQQEYLPSLQVAPEIIQEFCQALQQPDAKVFKNYLKVFFQRAKP
- binding [3]: binds

Continued, values first:

- binding [2]: binds
Molecule: Apoptosis-inducing factor 1, mitochondrial precursor (from UniProt O95831)

- binding [2]: binds
- binding [1]: no binding
Molecule: Casein kinase II subunit alpha (from UniProt P68400 1-391)

- binding [2]: binds
- binding [1]: no binding
Molecule: Casein kinase II subunit beta (from UniProt P67870 1-215)

- binding [2]: binds
Molecule: E3 ubiquitin-protein ligase EDD1 (from UniProt O95071 1-2799)

- binding [2]: binds
Molecule: Heat shock 70 kDa protein 1L (from UniProt P34931 1-641)

- binding [2]: binds
Molecule: activating signal cointegrator 1 complex subunit 3-like 1 (from UniProt O75643 1-2136)

- binding [4]: binds
B2: Synaptic glycoprotein SC2 (protein, UniProt Q9NZ01 1-308)
chain: MKHYEVEILDAKTREKLCFLDKVEPHATIAEIKNLFTKTHPQWYPARQSLRLDPKGKSLKDEDVLQKLPVGTTATLYFRDLGAQISWVTVFLTEYAGPLFIYLLFYFRVPFIYGHKYDFTSSRHTVVHLACICHSFHYIKRLLETLFVHRFSHGTMPLRNIFKNCTYYWGFAAWMAYYINHPLYTPPTYGAQQVKLALAIFVICQLGNFSIHMALRDLRPAGSKTRKIPYPTKNPFTWLFLLVSCPNYTYEVGSWIGFAIMTQCLPVALFSLVGFTQMTIWAKGKHRSYLKEFRDYPPLRMPIIPFLL
